PubChem BioAssay AID504793 | Drosophila RNAi Screening Center – 2011

Screen: 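Whole-genome screen for parts of the DNA damage checkpoint at G2/M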 (primary screen)
System: Drosophila S2R+ cells
Knock-down reagent: long dsRNA against Drosophila genes, about 0.25 µg dsRNA per well
Duration: 4 days of dsRNA, then 4 hours of drug before read-out
Challenge: doxorubicin 0.5 µM for 4 hours to cause double-strand breaks, in cells also given a low, harmless dose of dsRNA against nbs to sensitise the assay
Detection: 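Mitotic index as the number of phospho-histone H3-positive cells in each well following doxorubicin, given as raw counts without normalisation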
Scale: mitotic cells: higher = more cells in mitosis, weaker G2 arrest
Call rule: 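a call needs confirmation in secondary tests, with other dsRNAs and a check of mitotic timing without damage, not just a high primary count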
Meaning of the calls: active = confirmed in follow-up tests; inactive = not confirmed
The screen tested about 23,000 reagents; shown is an unselected part of those with a known target gene and a result. In the full data, 62 (0.27%) got an active call. 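Calls come from follow-up tests whose scores are not deposited, so confirmed genes may have low counts here; counts are not normalised per plate.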 Raw values vary from plate to plate and are shown uncorrected. Entries without a mark were called inactive. Reagents against one gene are numbered here. Names joined by + are all predicted targets of the reagent. No sequences are given here.

predicted target | dsRNA no. | mitotic cells, replicate 1
CG6497 | 1 | 4
CG6497 | 2 | 10
CG6497 | 3 | 6
Srrm1 (Serine-arginine repetitive matrix 1) | 1 | 3
CG14561 | 1 | 4
NKAIN (Na,K-ATPase Interacting) | 1 | 4
NKAIN (Na,K-ATPase Interacting) | 2 | 18
NKAIN (Na,K-ATPase Interacting) | 3 | 5
RpS19a (Ribosomal protein S19a) | 1 | 10
lush | 1 | 12
CG10898 | 1 | 3
prc (pericardin) | 1 | 3
Rnb (R and B) | 1 | 4
Rnb (R and B) | 2 | 5
Ufd1 (Ubiquitin fusion-degradation 1-like) | 1 | 12
CG34221 | 1 | 6
CG5676 | 1 | 5
CG5111 | 1 | 12

Copied from the entries so far, 4 entries:
predicted target | dsRNA no. | mitotic cells, replicate 1
CG6497 | 1 | 4
CG6497 | 2 | 10
CG6497 | 3 | 6
Srrm1 (Serine-arginine repetitive matrix 1) | 1 | 3

Additional records follow.
predicted target | dsRNA no. | mitotic cells, replicate 1
CG17824 (retired record) | 1 | 4
sl (small wing) | 1 | 10
sl (small wing) | 2 | 12
Sara (Smad anchor for receptor activation) | 1 | 4
hec (hector) | 1 | 6
CG12909 | 1 | 13
CG12909 | 2 | 8
CG42540 | 1 | 2
CG42540 | 2 | 12
CG42540 | 3 | 8
CG42540 | 4 | 11
CG12861 | 1 | 7
CG12861 | 2 | 8
CG12861 | 3 | 4
Prosbeta2R1 (Proteasome beta2 subunit-related 1) | 1 | 12
Ets21C (Ets at 21C) | 1 | 4
CG7294 | 1 | 4
CG7294 | 2 | 7
CG11841 | 1 | 3
CG11841 | 2 | 6
CG7856 | 1 | 9
CG33155 + mRpL53 | 1 | 6
CG33155 + mRpL53 | 2 | 6
CR32011 + CR32010 + PlexB + 1 more | 1 | 6
CR32011 + CR32010 + PlexB + 1 more | 2 | 1
CG43386 | 1 | 16
CG17292 | 1 | 2
CG17292 | 2 | 2
